Some of these results come from one statement about several compounds together.
Tested on: human THP-1 promonocytic leukemia cell line
Experiment: IL-8 production / cytokine release from THP-1 cells, TLR2 ligand with or without calcium flux agonist
Type: cell-based
Settings: TLR2 ligand (Pam2CYS) plus suboptimal dose of agonist: 20 nM thapsigargin, 316 nM A23187, 1 μM ionomycin
Procedure: For example, human promonocytic THP-1 cells were incubated in the presence or absence of a suboptimal dose of the TLR2 ligand Pam2CSK4 and compared to similarly treated cells which also received suboptimal doses of ionophore (here: A23187 and ionomycin). […] In another example, KB-LUC THP-1 cells (a THP-1-derived transfectant line harboring an NF-κB-driven luciferase expression cassette) were cultivated in the presence or absence of a suboptimal dose of the TLR2 ligand Pam2CSK4 and compared to similarly treated cells that also received suboptimal doses of various SERCA inhibitors.
Here, the ionophores A23187 and ionomycin, as well as the SERCA inhibitor thapsigargin synergize with the TLR2 ligand (Pam2CYS) in the activation of cytokine release from the human THP-1 promonocytic leukemia cell line. It should be especially noted that while the TLR2 ligand alone provided for about 5 ng/ml IL-8 response, addition of a suboptimal dose of the calcium flux agonists (e.g. 20 nM for thapsigargin, 316 nM for A23187, and 1 μM for ionomycin) produced more than 10-fold quantities of IL-8 production in the cells.

C/C=C(/C)C(=O)O[C@H]1C(C)=C2[C@H]([C@@H]1OC(=O)CCCCCCC)[C@@](C)(OC(C)=O)C[C@H](OC(=O)CCC)[C@@]1(O)[C@H]2OC(=O)[C@@]1(C)O [thapsigargin]
quantities of IL-8 production relative to TLR2 ligand alone: more than 10 fold

Reference: patent US10434142B2, “Compositions and methods of improved wound healing” (Chan Soon-Shiong Nanthealth Foundation, priority 2013, dated 2019)
